# Assay results published in paper PMC6823300, “The molecular basis of monopolin recruitment to the kinetochore” (Chromosoma, 2019).
# These are yes or no findings as the source states them, for the method shown. A result given as binding can be weak or reduced; the word gives no strength. Where a sequence is shown, tags or fusion partners need not be part of it.
# B1: His6-MBP-fused S. cerevisiae Dsn1 Box 1-2-3 region (residues 71–110 of 576) (domain or fragment, UniProt P40568 71-110, looked up)
# chain: DLKFKRHKNKHIQGFPTLGERLDNLQDIKKAKRVENFNSS
# notes: S. cerevisiae Dsn1, Box 1-2-3 region, residues 71-110 of 576; also called Sc Dsn1^71–110; His6-MBP-fused Dsn1 fragment; source: E. coli Rosetta2 (DE3) pLysS, purified
# Biological target: Cg His6-Csm1^69–181 (Candida glabrata)
# Assay: crystal structure; Cg His6-Csm1 69–181:ScDsn1 71–110; 0.2 M MgCl2, 0.1 M Tris-HCl pH 8.5, 25% PEG 3350; 2.5 Å; both purified
binder,measurement,value
B1,binding,binds
